Data as given in PubChem BioAssay AID504791 (Drosophila RNAi Screening Center, 2011).

- Purpose: 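Genes whose knock-down strengthens or weakens small-RNA reporter silencing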 (primary screen)
- System: Drosophila S2-derived reporter cells
- Knock-down reagent: long dsRNA against Drosophila genes, about 150-250 ng dsRNA per well (siRNA assay); about 80-120 ng (miRNA assay)
- Duration: about 5 days (siRNA assay); about 4 days (miRNA assay)
- Treatment: copper sulfate induction of reporters: 25 µM (siRNA assay); 200 mM stated (miRNA assay), 1-2 days before reading
- Read-out: 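Dual luciferase assay: Renilla to firefly signal ratio in each well, scaled to the mean ratio of its plate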
- Reading the numbers: siRNA reporter hit score: higher = 3 marks a strong hit with raised ratio; -3 a strong hit with lowered ratio
- Units: stable assay Renilla, run 1 in luminescence; stable assay firefly, run 1 in luminescence
- Active means: 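a well was a first-pass pick when its plate-scaled ratio rose above 1.5 (siRNA assay) or 1.6 (miRNA assay), or dropped below 0.6; a gene counted only if two separate dsRNAs agreed on retest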
In all, the deposit lists about 23,000 reagents; this is an unselected part of those that have a named target and a result. Of all reagents, 199 (0.86%) are marked active. 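Plate-scaled ratios behind the calls are not deposited; printed light signals are raw; many rows marked increased or decreased are still called inactive.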

CG17930 (GeneID 41979) [DRSC15292]
- stable assay Renilla, run 1: 7895
- stable assay firefly, run 1: 3.08e5
- activity call: inactive

CG13229 (GeneID 36168) [DRSC06349]
- stable assay Renilla, run 1: 6812
- stable assay firefly, run 1: 5.15e5
- activity call: inactive

Hipk (GeneID 38070) [DRSC07885]
- stable assay Renilla, run 1: 4979
- stable assay firefly, run 1: 3.49e5
- activity call: inactive

Hipk (GeneID 38070) [DRSC08507]
- stable siRNA reporter change: reporter ratio lowered past the hit cutoff
- miRNA reporter change: reporter ratio lowered past the hit cutoff
- stable assay Renilla, run 1: 4468
- stable assay firefly, run 1: 3.19e5
- activity call: inactive

Hipk (GeneID 38070) [DRSC23155]
- stable assay Renilla, run 1: 4407
- stable assay firefly, run 1: 2.94e5
- activity call: inactive

CG10208 (GeneID 42814) [DRSC14211]
- stable assay Renilla, run 1: 8374
- stable assay firefly, run 1: 3.80e5
- activity call: inactive

Tim9a (GeneID 32294) [DRSC19753]
- stable assay Renilla, run 1: 3691
- stable assay firefly, run 1: 2.87e5
- activity call: inactive

Rpe (GeneID 35692) [DRSC06407]
- stable assay Renilla, run 1: 8881
- stable assay firefly, run 1: 5.92e5
- activity call: inactive

CG14104 (GeneID 50259) [DRSC10106]
- stable assay Renilla, run 1: 8136
- stable assay firefly, run 1: 4.65e5
- activity call: inactive

ValRS-m (GeneID 39023) [DRSC10535]
- stable assay Renilla, run 1: 5967
- stable assay firefly, run 1: 4.32e5
- activity call: inactive

Spf30 (GeneID 7354399) [DRSC11976]
- stable assay Renilla, run 1: 8996
- stable assay firefly, run 1: 4.80e5
- activity call: inactive

CG34155 (GeneID 4379867) [DRSC13991]
- stable assay Renilla, run 1: 7981
- stable assay firefly, run 1: 3.48e5
- activity call: inactive

Cht5 (GeneID 41687) [DRSC16470]
- stable assay Renilla, run 1: 3372
- stable assay firefly, run 1: 3.80e5
- activity call: inactive

side-VI (GeneID 4379854) [DRSC12828]
- stable assay Renilla, run 1: 6911
- stable assay firefly, run 1: 4.16e5
- activity call: inactive

side-VI (GeneID 4379854) [DRSC12830]
- stable assay Renilla, run 1: 5367
- stable assay firefly, run 1: 4.48e5
- activity call: inactive

side-VI (GeneID 4379854) [DRSC14920]
- stable assay Renilla, run 1: 7332
- stable assay firefly, run 1: 3.93e5
- activity call: inactive

side-VI (GeneID 4379854) [DRSC15624]
- stable assay Renilla, run 1: 5963
- stable assay firefly, run 1: 3.18e5
- activity call: inactive

side-VI (GeneID 4379854) [DRSC23088]
- stable assay Renilla, run 1: 4599
- stable assay firefly, run 1: 3.29e5
- activity call: inactive

Wdr24 (GeneID 43505) [DRSC14151]
- stable assay Renilla, run 1: 7526
- stable assay firefly, run 1: 4.71e5
- activity call: inactive

CG12923 (GeneID 36026) [DRSC06237]
- stable assay Renilla, run 1: 6612
- stable assay firefly, run 1: 4.81e5
- activity call: inactive

CG8219 (GeneID 38722) [DRSC10971]
- stable assay Renilla, run 1: 6884
- stable assay firefly, run 1: 3.84e5
- activity call: inactive

GlcAT-S (GeneID 34282) [DRSC02731]
- stable assay Renilla, run 1: 11039
- stable assay firefly, run 1: 7.92e5
- activity call: inactive

mu2 (GeneID 38257) [DRSC08726]
- stable assay Renilla, run 1: 8131
- stable assay firefly, run 1: 2.63e5
- activity call: inactive

mu2 (GeneID 38257) [DRSC21534]
- stable assay Renilla, run 1: 10050
- stable assay firefly, run 1: 4.66e5
- activity call: inactive

CG12496 (GeneID 31226) [DRSC18602]
- stable assay Renilla, run 1: 6619
- stable assay firefly, run 1: 4.37e5
- activity call: inactive

alphaTub84D (GeneID 40904) [DRSC12623]
- siRNA reporter hit score: 3
- stable assay Renilla, run 1: 7905
- stable assay firefly, run 1: 4.23e5
- activity call: inactive

CG33203 (GeneID 43414) [DRSC14874]
- stable assay Renilla, run 1: 5948
- stable assay firefly, run 1: 3.19e5
- activity call: inactive

CG33203 (GeneID 43414) [DRSC14876]
- stable assay Renilla, run 1: 5908
- stable assay firefly, run 1: 3.67e5
- activity call: inactive

CG33203 (GeneID 43414) [DRSC14877]
- stable assay Renilla, run 1: 5059
- stable assay firefly, run 1: 4.56e5
- activity call: inactive
